Some results were stated once for a whole list of compounds, not compound by compound. At least one compound was matched to its structure with a doubt left.
Legend:
Assay type in all cases: cell-based
Settings in all cases: 300 ppm; seven days, 25° C.; compared to untreated check
Septoria lycopersici = Septoria lycopersici (leaf spot of tomato) radial growth on Potato Dextrose Agar
Alternaria solani = Alternaria solani (early blight of tomato/potato) radial growth on Potato Dextrose Agar
Pyricularia oryzae = test system: Pyricularia oryzae

| Structure (SMILES) | control (Septoria lycopersici) [%] | control (Alternaria solani) [%] | control (Pyricularia oryzae) [%] |
| --- | --- | --- | --- |
| CO/N=C/c1nc(SCCC(F)=C(F)F)sc1Cl [Compound 68] | > 70 |  |  |
| CO/N=C/c1nc(S(=O)(=O)CCC(F)=C(F)F)sc1Cl [Compound 69] |  | > 70 | > 70 |
| CO/N=C/c1cnc(S(=O)(=O)CCC(F)=C(F)F)s1 [Compound 70] | > 70 | > 70 | > 70 |
| CO/N=C\c1cnc(S(=O)(=O)CCC(F)=C(F)F)o1 [Compound 71] |  | > 70 | > 70 |
